Source: PubChem BioAssay AID1259254 (NCATS, 2017)
The deposit covers about 59,000 reagents; below is a part drawn at random. About 1,550 of all reagents (2.6%) count as active. 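G2 share is only a proxy for re-replication; each gene was hit by three separate siRNAs, and active genes were retested.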 Raw values are not corrected between plates. Reagents against one gene are numbered here. Not stated in the record: the amount of reagent.

Test: 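Finding genes that stop cells copying their DNA twice in one cycle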 (primary screen)
Cell system: human HCT116 colorectal cancer cells
Knock-down reagent: single siRNA against human genes
Duration: 3 days
Measured: 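Nuclei stained with Hoechst and imaged; cell-cycle phase assigned by DNA content; G2 share scaled per plate, non-targeting siRNA 0%, GMNN siRNA 100%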
Scale: G2 robust z-score and G2 cells, % of GMNN control: higher = more G2 cells, more excess DNA replication; raw share of cells in G2: higher = larger share of cells with G2 DNA content
Call rule: 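An siRNA counts as active if its G2 robust z-score lies at least 5 MADs above the screen median; here such calls match roughly 38% of GMNN control or more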

gene symbol	reagent	G2 robust z-score	G2 cells, % of GMNN control	raw share of cells in G2 (%)	call
RBM14	1	-0.992	-4.01	3.95	inactive
RBM14	2	-0.212	1.47	4.32	inactive
RBM14	3	-0.248	1.23	6.96	inactive
ZNF555	1	0.0625	3.41	4.26	inactive
ZNF555	2	0.637	7.45	5.75	inactive
ZNF555	3	0.0829	3.55	4.77	inactive
TRPC5	1	-0.351	0.499	5.47	inactive
TRPC5	2	2.63	21.5	12	inactive
TRPC5	3	3.81	29.8	16	inactive
TEKT2	1	-0.378	0.305	6.3	inactive
TEKT2	2	-0.688	-1.88	3.56	inactive
TEKT2	3	-0.795	-2.63	3.13	inactive
PLA2G4D	1	0.493	6.43	7.47	inactive
PLA2G4D	2	0.567	6.96	8.91	inactive
PLA2G4D	3	2.38	19.7	11.5	inactive
RHOBTB2	1	0.561	6.91	9.14	inactive
RHOBTB2	2	-0.403	0.134	4.2	inactive
RHOBTB2	3	0.486	6.39	6.05	inactive
SLITRK4	1	-0.279	1	6.44	inactive
SLITRK4	2	-0.188	1.65	5.3	inactive
SLITRK4	3	-0.658	-1.66	4	inactive
SULT1E1	1	-0.801	-2.67	3.07	inactive
SULT1E1	2	4.63	35.6	17.7	inactive
SULT1E1	3	1.07	10.5	8.13	inactive
MTMR11	1	0.153	4.05	6.11	inactive
MTMR11	2	0.136	3.92	5.48	inactive
MTMR11	3	2.55	20.9	9.8	inactive
CAPRIN2	1	-1	-4.09	1.62	inactive
CAPRIN2	2	-0.722	-2.11	3.66	inactive
CAPRIN2	3	0.185	4.27	6.52	inactive
